From PubChem BioAssay AID1347076 (National Center for Advancing Translational Sciences (NCATS), 2019)
In all, about 400,000 compounds went through this assay and about 13,000 (3.2%) were called active. The shares of active, inactive and inconclusive entries below differ from those in the screen. Calls come from the whole dose curve; as a rule, active = well fitted cell-killing curve with a large enough effect; inconclusive = small, poorly fitted or top-dose-only effect, or effect the other way; inactive = flat fitted curve, though single readings scatter. Where the call is inconclusive, the potency comes from a doubtful curve fit.

Assay: qHTS assay for MDR1-selective chemotherapeutics: Primary screen using the drug-selected MDR subline cells KB-V1; note: nearly all actives have a fitted effect of over 60% in size
Details: KB-V1 MDR cells viability, CellTiter-Glo, 72 h; activity change, negative = cytotoxicity: at 46.1 µM (top of the series)
Summary of the method: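 Potencies derive from concentration-effect curves fitted to normalized luminescence (CellTiter-Glo) of KB-V1 cells treated for 72 h at 37 degrees C in phenol-red-free DMEM containing 10% FBS.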
% is set by controls: 0 for no effect and ±100 for the full control effect; potency is the fitted concentration of half-maximal effect.

Row | Structure (SMILES) | activity change, negative = cytotoxicity | Potency
1 | CCCn1c(SCC(=O)Nc2nc3ccccc3s2)nc2c1c(=O)n(C)c(=O)n2C | inactive: -21.1% | –
2 | CCC(C)(C)c1ccc(OCCCC[n+]2ccccc2)c(C(C)(C)CC)c1 | – | inconclusive: 29.1 µM [rising, partial curve, poor fit]
3 | Cc1cc(OCC(=O)N(Cc2ccc(N(C)C)cc2)C2CCS(=O)(=O)C2)cc(C)c1Cl (stereo not given) | – | inconclusive: 25.9 µM [cytotoxic, single point]
4 | CCCCc1ccc(NC(=O)C2CCN(S(C)(=O)=O)CC2)cc1 | – | inconclusive: 4.61 µM [cytotoxic, full curve]
5 | Cc1ccc(C(=O)CSc2cc(C)nc(SCC(=O)c3ccccc3)n2)cc1 | – | inconclusive: 20.6 µM [cytotoxic, single point]
6 | Cc1ccccc1S(=O)(=O)N(C)C[C@@H]1OCc2cnnn2CCCC(=O)N([C@H](C)CO)C[C@H]1C | inactive: -8.32% | –
7 | COc1ccc(NC(=O)Cn2c(=O)n(-c3ccc(OC)cc3)c(=O)c3ccc(C(=O)NCc4ccc(C)cc4)cc32)cc1 | – | inconclusive: 8.2 µM [rising, partial curve]
8 | CCOC(=O)CC1C(=O)NCCN1C(=O)c1cccc(OC)c1 (stereo not given) | inactive: 20% | –
9 | Cn1cc(C(=O)N2CCCCC2)c(=O)c2cc(S(=O)(=O)N3CCCC3)ccc21 | inactive: 24.1% | –
10 | Cc1ccc(N2CC(C(=O)Nc3ccc(S(=O)(=O)Nc4nccc(C)n4)cc3)CC2=O)cc1 (stereo not given) | – | inconclusive: 18.4 µM [rising, single point]
11 | O=C(NCc1ccc(Cl)c(Cl)c1)c1ccco1 | inactive: 1.89% | –
12 | Cc1cc(=O)[nH]c(Nc2ccc(N(C)C)cc2)n1 | – | inconclusive: 18.4 µM [rising, single point]
13 | CCn1c(SCC(=O)c2cc(C)ccc2C)nc2cc(S(=O)(=O)N3CCOCC3)ccc21 | – | inconclusive: 9.2 µM [cytotoxic, partial curve, poor fit]
14 | Cc1cc(NC(=O)c2cc3ncc(Br)cn3n2)no1 | – | inconclusive: 20.6 µM [rising, partial curve, poor fit]
15 | CN1CCc2c(sc(NC(=O)C3CCN(S(=O)(=O)c4cccs4)CC3)c2C(N)=O)C1 | inactive: -1.84% | –
16 | CC1(C)CC(=O)CC2(C1)NCC(c1ccccc1Cl)c1c2[nH]c2ccccc12 (stereo not given) | – | inconclusive: 11.6 µM [cytotoxic, partial curve]
17 | Cc1ccc(NC(=O)CSc2nc(C)c(C)c(C)n2)cc1S(=O)(=O)N1CCOCC1 | – | inconclusive: 2.59 µM [cytotoxic, partial curve, poor fit]
18 | CC(C)N(Cc1nc(-c2ccc(Cl)cc2)no1)C(=O)c1cccs1 | inconclusive: -41.2% | –
19 | Cc1ccc(C(C)C)c(OCC(=O)OCC(=O)NC2CC2)c1 | – | inconclusive: 25.9 µM [rising, single point]
20 | Cc1ccc(C(=O)NNC(=O)c2cc3cc4ccccc4nc3s2)cc1 | – | inconclusive: 23.1 µM [cytotoxic, single point]
21 | CCCCn1c(SCC(=O)N2CCC(C)CC2)nc2ccsc2c1=O | – | active: 1.16 µM
22 | O=C(c1cccs1)c1cn(CCOc2ccccc2Cl)c2ccccc12 | inactive: 7.99% | –
23 | Cc1ccccc1-c1nc(CS(=O)CC(=O)NCCN2CCN(Cc3ccccc3)CC2)c(C)o1 (stereo not given) | – | inconclusive: 20.6 µM [cytotoxic, single point]
24 | CCn1cc(C(=O)N(CCC(C)C)c2c(N)n(Cc3ccccc3)c(=O)[nH]c2=O)c(=O)c2ccc(C)nc21 | – | inconclusive: 0.731 µM [rising, full curve, poor fit]

Of the compounds above, these contain an aryl thioether with sulfur outside any ring:
Row | Structure (SMILES) | activity change, negative = cytotoxicity | Potency
1 | CCCn1c(SCC(=O)Nc2nc3ccccc3s2)nc2c1c(=O)n(C)c(=O)n2C | inactive: -21.1% | –
5 | Cc1ccc(C(=O)CSc2cc(C)nc(SCC(=O)c3ccccc3)n2)cc1 | – | inconclusive: 20.6 µM [cytotoxic, single point]
13 | CCn1c(SCC(=O)c2cc(C)ccc2C)nc2cc(S(=O)(=O)N3CCOCC3)ccc21 | – | inconclusive: 9.2 µM [cytotoxic, partial curve, poor fit]
17 | Cc1ccc(NC(=O)CSc2nc(C)c(C)c(C)n2)cc1S(=O)(=O)N1CCOCC1 | – | inconclusive: 2.59 µM [cytotoxic, partial curve, poor fit]
21 | CCCCn1c(SCC(=O)N2CCC(C)CC2)nc2ccsc2c1=O | – | active: 1.16 µM

(listing goes on)

Row | Structure (SMILES) | activity change, negative = cytotoxicity | Potency
25 | CSc1ccccc1OCc1cc(C(=O)NCCN2CCCc3ccccc32)no1 | inactive: 0% | –
26 | COc1ccc(/C=C/C(=O)O)cc1S(=O)(=O)N1CCCC1 | inactive: 0% | –
27 | COc1cc(C2CC(=O)c3cnc(N)nc3C2)cc(OC)c1OC (stereo not given) | – | inconclusive: 20.6 µM [cytotoxic, single point]
28 | COc1cccc(-c2nc(S(=O)(=O)c3ccccc3)c(N3CCC(C)CC3)o2)c1 | – | inconclusive: 2.31 µM [cytotoxic, full curve]
29 | O=S(=O)(Cc1ccc(Cl)cc1Cl)c1ccc(Cl)cc1 | – | active: 1.46 µM
30 | COc1cn(-c2ccccc2)nc1C(=O)Nc1ccccc1 | – | inconclusive: 13 µM [cytotoxic, partial curve]
31 | Cc1cc(Nc2ccc3c(c2)OCCO3)c2cccc(C)c2n1 | – | active: 23.1 µM
32 | O=C(CCCOc1ccc(Cl)cc1Cl)N/N=C/c1ccccc1 | – | inconclusive: 25.9 µM [cytotoxic, partial curve, poor fit]
33 | Cc1c(C(=O)OCC(C)C)[nH]c2c1C(=O)CC(c1cccs1)C2 (stereo not given) | – | inconclusive: 0.82 µM [cytotoxic, full curve, poor fit]
34 | O=C(Nc1ccccc1)OCC(CN1CCCCC1)OC(=O)Nc1ccccc1 (stereo not given) | – | inconclusive: 5.8 µM [cytotoxic, full curve]
35 | CC(NC(=O)c1cccc2c1Oc1ccccc1S2)C(=O)O (stereo not given) | inactive: 1.25% | –
36 | CC(C)Cn1cc(C(=O)NCC2CCCO2)c2c3ccccc3n(C)c2c1=O (stereo not given) | – | inconclusive: 11.6 µM [cytotoxic, partial curve]
37 | N=c1c(S(=O)(=O)c2ccc(Cl)cc2)cc2c(=O)n3ccccc3nc2n1C1CCCC1 | – | inconclusive: 3.66 µM [cytotoxic, partial curve, poor fit]
38 | Cc1ccc2nc(/N=C(\N)NC(=O)NC3CCCCC3)nc(C)c2c1 | – | inconclusive: 23.1 µM [cytotoxic, single point]
39 | Cc1cc(Cl)cc(Cl)c1CNc1c([N+](=O)[O-])c(=O)oc2ccccc12 | inactive: 5.38% | –
40 | O=C(NCc1c[nH]c2ccccc12)c1ccccc1 | inactive: 5.98% | –
41 | C[C@@H]1CCCCO[C@@H](CN(C)Cc2ccccc2)[C@@H](C)CN([C@H](C)CO)C(=O)c2cc(NC(=O)Nc3cccc4ccccc34)ccc2O1 | – | inconclusive: 20.6 µM [rising, partial curve, poor fit]
42 | CCC(C(=O)N1CCN(C(=O)c2ccco2)CC1)c1ccccc1 (stereo not given) | – | inconclusive: 29.1 µM [cytotoxic, single point]
43 | CC(C)=C1C2CCC1C1C(=O)N(CCc3ccccc3)C(=O)C21 (stereo not given) | – | active: 10.3 µM
44 | Cc1ccc2c(c1)Oc1ccc(NC(=O)CCl)cc1C(=O)N2 | – | active: 9.2 µM
45 | O=C(Nc1cccc(-c2cn3ccccc3n2)c1)c1ccccc1 | – | inconclusive: 23.1 µM [cytotoxic, partial curve, poor fit]
46 | O=C(Nc1ccc(-c2nc3ccccc3[nH]2)cc1)c1ccc2c(c1)OCO2 | inactive: 2.56% | –
47 | Cc1ccc2c(c1)c(=O)c(Br)c(C)n2Cc1ccccc1 | – | active: 18.4 µM
48 | O=C(N/N=C\c1ccc(Cl)s1)c1ccc(Cn2cccn2)o1 | inactive: -21% | –

Row | Structure (SMILES) | activity change, negative = cytotoxicity | Potency
49 | CCn1nc(NS(=O)(=O)c2ccc(NC(C)=O)cc2)c2cc3cc(C)ccc3nc21 | – | inconclusive: 18.4 µM [rising, single point]
50 | O=C(Nc1ccccn1)c1onc2c1CCCC2 | – | inconclusive: 23.1 µM [cytotoxic, single point]
51 | COC(=O)C(=O)/C=C(\O)c1ccc(C)cc1 | inconclusive: 41.3% | –
52 | O=C(Nc1ccccc1O)c1cccc(S(=O)(=O)N2CCOCC2)c1 | inactive: 15.6% | –
53 | CCOC(=O)C1=C(N)N(c2ccc(C)cc2)C2=C(C(=O)CCC2)C1c1cccs1 (stereo not given) | – | inconclusive: 4.61 µM [cytotoxic, partial curve, poor fit]
54 | CC1(C(=O)NCC2CCOCC2)Cc2c(-c3cccc(C(F)(F)F)c3)ccnc2O1 (stereo not given) | – | inconclusive: 20.6 µM [cytotoxic, single point]
55 | CCN(CC(=O)Nc1c(F)cccc1F)C(=O)/C=C/c1cn(Cc2ccccc2)nc1-c1cccnc1 | – | inconclusive: 29.1 µM [cytotoxic, single point]
56 | CCCCNC(=O)C1(C)CCN1C(=O)c1cc(-c2ccccc2)cs1 (stereo not given) | – | inconclusive: 10.3 µM [cytotoxic, partial curve]
57 | CN(C)c1ccc(/C=N/N2C(=S)SC(C)(C)C2N(O)C(=O)Nc2ccc([N+](=O)[O-])cc2)cc1 (stereo not given) | inactive: -26.7% | –
58 | Nc1nccc(/C=C/c2c(F)cccc2Cl)n1 | – | inconclusive: 29.1 µM [cytotoxic, single point]
59 | COC(=O)CCC/C=C1/SCC(NC(=O)c2ccccc2)C1=O (stereo not given) | – | inconclusive: 18.4 µM [cytotoxic, single point]
60 | CCCCN(CCCC)C(=O)CSc1nnc2n(C)c(=O)c3c4c(sc3n12)CCCC4 | – | active: 23.1 µM
61 | COc1ccc(-n2cnc3sc4c(c3c2=O)CCCC4)cc1 | – | active: 16.4 µM
62 | CCOc1ccc(Cc2c(O)nc(SC)[nH]c2=O)cc1 | – | inconclusive: 23.1 µM [rising, single point]
63 | Clc1ccc(CON/C=N/c2ncnc3sccc23)c(Cl)c1 | – | inconclusive: 20.6 µM [cytotoxic, single point]
64 | COc1ccc(-c2csc(-c3cccs3)n2)cc1OC | – | inconclusive: 29.1 µM [cytotoxic, single point]
65 | CCN1CCN(Cc2cccc(Oc3ccc(Cl)cc3)c2)CC1 | – | inconclusive: 25.9 µM [cytotoxic, partial curve]
66 | CCc1c(C)nc2ncnn2c1N1CCC(C(=O)Nc2cccc(C(C)=O)c2)CC1 | – | inconclusive: 16.4 µM [cytotoxic, partial curve]
67 | O=C(CN(c1ccccc1)S(=O)(=O)c1ccccc1)Nc1ccc(F)cc1 | inactive: -11.5% | –
68 | COc1ccccc1N1CCN(C(=O)COc2cc(C)cc(C)c2)CC1 | – | inconclusive: 13 µM [cytotoxic, partial curve]
69 | COc1ccc(CNC(=O)c2cc3c(=O)n(C)c4ccccc4c3n2C)c(OC)c1 | inactive: -3.49% | –
70 | O=C(CCc1ccccc1)NC(c1cccs1)c1cc(Cl)c2cccnc2c1O (stereo not given) | – | active: 2.06 µM
